Experimental data reported in paper PMC7862700.
Only a part is listed here, and it is no random draw. At the low end of the ranking, values are background and their order means little.

Protein sequences, listed by entry. Tags and fused reporters are not part of them. Lines headed by an entry give the natural chain unless they say otherwise; changes in a name come on top.
UniProt Q01892: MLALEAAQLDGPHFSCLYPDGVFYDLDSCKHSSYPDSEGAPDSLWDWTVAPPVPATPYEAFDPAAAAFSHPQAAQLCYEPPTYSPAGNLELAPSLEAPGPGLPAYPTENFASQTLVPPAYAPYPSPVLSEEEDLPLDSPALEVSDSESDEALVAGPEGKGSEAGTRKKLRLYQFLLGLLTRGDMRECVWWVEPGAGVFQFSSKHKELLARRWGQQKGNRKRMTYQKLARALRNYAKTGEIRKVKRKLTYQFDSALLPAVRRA
UniProt P41161: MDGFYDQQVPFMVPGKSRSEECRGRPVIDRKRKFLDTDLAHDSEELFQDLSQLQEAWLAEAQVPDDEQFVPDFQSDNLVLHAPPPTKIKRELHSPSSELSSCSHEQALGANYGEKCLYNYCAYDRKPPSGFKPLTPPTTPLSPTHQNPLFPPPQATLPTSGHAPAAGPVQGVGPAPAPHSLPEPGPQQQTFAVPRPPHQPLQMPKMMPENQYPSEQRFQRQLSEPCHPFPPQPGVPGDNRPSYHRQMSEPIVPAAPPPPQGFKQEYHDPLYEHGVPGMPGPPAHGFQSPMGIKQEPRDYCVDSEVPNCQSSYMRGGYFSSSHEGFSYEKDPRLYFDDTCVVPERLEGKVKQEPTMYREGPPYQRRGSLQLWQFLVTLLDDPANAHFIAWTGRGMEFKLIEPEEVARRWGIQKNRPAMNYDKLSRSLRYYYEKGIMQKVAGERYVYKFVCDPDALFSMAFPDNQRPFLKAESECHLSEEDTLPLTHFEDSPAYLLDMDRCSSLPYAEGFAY
UniProt Q99607: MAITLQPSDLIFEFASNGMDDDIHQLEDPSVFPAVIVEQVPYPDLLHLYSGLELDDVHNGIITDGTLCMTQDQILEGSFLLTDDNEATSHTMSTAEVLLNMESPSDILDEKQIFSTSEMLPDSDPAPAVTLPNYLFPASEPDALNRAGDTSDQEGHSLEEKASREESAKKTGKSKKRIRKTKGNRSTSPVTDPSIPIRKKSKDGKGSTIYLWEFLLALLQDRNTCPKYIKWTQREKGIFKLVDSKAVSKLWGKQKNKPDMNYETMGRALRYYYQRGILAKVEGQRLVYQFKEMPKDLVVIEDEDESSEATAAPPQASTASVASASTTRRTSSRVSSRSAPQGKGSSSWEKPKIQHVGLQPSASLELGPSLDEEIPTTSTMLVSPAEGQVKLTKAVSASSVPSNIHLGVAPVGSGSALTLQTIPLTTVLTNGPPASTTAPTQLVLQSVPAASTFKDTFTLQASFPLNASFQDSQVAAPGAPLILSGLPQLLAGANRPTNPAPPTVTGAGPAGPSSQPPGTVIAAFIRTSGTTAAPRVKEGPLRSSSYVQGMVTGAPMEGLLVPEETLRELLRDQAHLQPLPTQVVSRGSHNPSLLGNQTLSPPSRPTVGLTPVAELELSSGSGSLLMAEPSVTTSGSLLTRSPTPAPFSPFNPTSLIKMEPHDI

Columns and labels:
Test in all cases: DAPPL (digital affinity profiling via proximity ligation, sequencing)
Conditions in all cases: 10 mM Tris-HCl pH 7.5, 50 mM NaCl, 1 mM DTT, 4% glycerol, room temperature, 30 min; GST-TFs on glutathione beads, 16-mer random dsDNA library, 0.1% …; high values mean tight binding; double strand, one strand shown; scale: fold enrichment (6-mer frequency, TF over GST control)
[1] = biological target: T1, FLI1 (UniProt Q01543)
T1 sequence: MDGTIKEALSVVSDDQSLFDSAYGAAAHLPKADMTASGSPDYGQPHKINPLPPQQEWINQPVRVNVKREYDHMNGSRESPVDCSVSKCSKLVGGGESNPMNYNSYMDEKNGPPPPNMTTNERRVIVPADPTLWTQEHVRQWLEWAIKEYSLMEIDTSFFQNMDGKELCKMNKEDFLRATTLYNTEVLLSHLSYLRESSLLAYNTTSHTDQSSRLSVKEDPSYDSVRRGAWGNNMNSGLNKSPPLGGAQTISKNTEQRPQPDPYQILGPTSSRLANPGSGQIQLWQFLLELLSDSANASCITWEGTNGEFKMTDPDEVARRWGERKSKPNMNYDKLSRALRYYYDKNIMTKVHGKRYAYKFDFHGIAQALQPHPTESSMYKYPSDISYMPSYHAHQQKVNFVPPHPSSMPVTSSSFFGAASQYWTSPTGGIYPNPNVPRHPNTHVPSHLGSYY

[2] = biological target: T2, EHF (UniProt Q9NZC4)
T2 sequence: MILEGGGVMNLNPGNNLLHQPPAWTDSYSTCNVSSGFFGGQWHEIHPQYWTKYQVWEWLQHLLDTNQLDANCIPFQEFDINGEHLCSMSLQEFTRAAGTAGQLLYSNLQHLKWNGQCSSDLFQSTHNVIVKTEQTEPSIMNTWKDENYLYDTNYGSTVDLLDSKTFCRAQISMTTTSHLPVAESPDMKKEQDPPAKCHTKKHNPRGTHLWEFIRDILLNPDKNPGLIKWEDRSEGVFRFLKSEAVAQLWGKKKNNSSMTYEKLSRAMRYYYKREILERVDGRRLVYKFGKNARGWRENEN

[3] = biological target: SPIB (UniProt Q01892)
[4] = biological target: ETV5 (UniProt P41161)
[5] = biological target: ELF4 (UniProt Q99607)
[6] = biological target: T3, ETV2 (UniProt O00321)
T3 sequence: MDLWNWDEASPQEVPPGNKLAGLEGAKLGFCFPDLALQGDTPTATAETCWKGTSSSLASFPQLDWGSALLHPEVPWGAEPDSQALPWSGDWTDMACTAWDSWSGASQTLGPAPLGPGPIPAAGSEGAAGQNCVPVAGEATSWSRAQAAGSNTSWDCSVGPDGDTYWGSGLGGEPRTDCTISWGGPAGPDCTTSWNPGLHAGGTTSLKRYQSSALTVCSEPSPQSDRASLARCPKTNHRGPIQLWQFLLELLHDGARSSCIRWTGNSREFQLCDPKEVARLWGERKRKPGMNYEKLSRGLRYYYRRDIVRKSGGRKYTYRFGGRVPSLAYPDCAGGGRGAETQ

[7] = biological target: T4, ETV3L (UniProt Q6ZN32)
T4 sequence: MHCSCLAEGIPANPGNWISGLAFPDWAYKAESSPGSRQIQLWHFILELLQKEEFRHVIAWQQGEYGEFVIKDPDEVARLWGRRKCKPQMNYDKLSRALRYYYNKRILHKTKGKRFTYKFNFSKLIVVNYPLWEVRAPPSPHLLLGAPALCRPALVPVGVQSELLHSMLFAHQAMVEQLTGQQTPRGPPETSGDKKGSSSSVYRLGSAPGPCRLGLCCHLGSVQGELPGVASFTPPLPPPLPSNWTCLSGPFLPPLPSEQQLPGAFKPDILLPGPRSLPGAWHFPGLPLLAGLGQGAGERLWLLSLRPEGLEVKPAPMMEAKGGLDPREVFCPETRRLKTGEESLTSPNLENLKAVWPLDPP

| Sequence | binding signal [1] | binding signal [2] | binding signal [3] | binding signal [4] | binding signal [5] | binding signal [6] | binding signal [7] |
| --- | --- | --- | --- | --- | --- | --- | --- |
| GGGGGC | 0.594 | 0.626 | 0.637 | 0.621 | 0.637 | 0.701 | 0.693 |
| GGGCCG | 0.62 | 0.643 | 0.554 | 0.583 | 0.654 | 0.511 | 0.63 |
| CGGCAG | 0.847 | 0.848 | 0.788 | 0.828 | 0.814 | 0.94 | 0.753 |
| GGCCAT | 0.783 | 0.849 | 0.859 | 0.866 | 0.876 | 0.845 | 0.916 |
| AAAGTG | 0.886 | 0.936 | 0.924 | 0.884 | 0.948 | 0.934 | 0.897 |
| TGAGTT | 0.423 | 0.381 | 0.438 | 0.416 | 0.411 | 0.345 | 0.41 |
| ATCCAG | 0.853 | 0.873 | 0.853 | 0.819 | 0.883 | 0.902 | 0.848 |
| ACCGAG | 0.777 | 0.78 | 0.652 | 0.78 | 0.743 | 0.769 | 0.728 |
| GTGACA | 0.765 | 0.77 | 0.731 | 0.781 | 0.788 | 0.651 | 0.869 |
| AGACGA | 0.693 | 0.732 | 0.727 | 0.72 | 0.708 | 0.763 | 0.698 |
| GTACGG | 0.793 | 0.869 | 0.864 | 0.896 | 0.79 | 0.946 | 0.837 |
| GCATCA | 0.688 | 0.756 | 0.743 | 0.721 | 0.719 | 0.745 | 0.755 |
| AGCTGG | 0.952 | 0.897 | 0.921 | 0.819 | 0.872 | 0.757 | 0.952 |
| GACGCA | 0.529 | 0.546 | 0.533 | 0.564 | 0.574 | 0.53 | 0.571 |
| CCAGAG | 0.692 | 0.692 | 0.594 | 0.682 | 0.705 | 0.673 | 0.67 |
| AGGTGA | 0.561 | 0.562 | 0.554 | 0.571 | 0.566 | 0.478 | 0.531 |
| CGGGCC | 0.785 | 0.74 | 0.725 | 0.77 | 0.752 | 0.715 | 0.724 |
| AGGCCT | 0.886 | 0.947 | 0.941 | 0.943 | 0.92 | 1.01 | 0.956 |
| AGACCC | 0.71 | 0.7 | 0.716 | 0.691 | 0.723 | 0.758 | 0.685 |
| GACAAG | 0.734 | 0.795 | 0.708 | 0.735 | 0.729 | 0.716 | 0.725 |

| Sequence | binding signal [1] | binding signal [2] | binding signal [3] | binding signal [4] | binding signal [5] | binding signal [6] | binding signal [7] |
| --- | --- | --- | --- | --- | --- | --- | --- |
| GGGTTA | 0.861 | 0.818 | 0.792 | 0.802 | 0.808 | 0.831 | 0.802 |
| CGGGGT | 0.654 | 0.614 | 0.642 | 0.639 | 0.609 | 0.606 | 0.618 |
| CGTGTG | 0.46 | 0.421 | 0.443 | 0.42 | 0.418 | 0.41 | 0.426 |
| CGGTGG | 0.653 | 0.624 | 0.655 | 0.626 | 0.627 | 0.536 | 0.698 |
| ACGAGG | 0.783 | 0.727 | 0.835 | 0.787 | 0.811 | 0.709 | 0.67 |
| GGTAGC | 0.898 | 0.816 | 0.828 | 0.824 | 0.824 | 0.859 | 0.83 |
| GTAGTA | 0.912 | 0.927 | 0.934 | 0.937 | 0.98 | 0.713 | 0.908 |
| CCCAGC | 0.892 | 0.91 | 0.907 | 0.802 | 0.907 | 0.999 | 0.923 |
| AGTCTA | 0.765 | 0.748 | 0.739 | 0.699 | 0.703 | 0.61 | 0.702 |
| CAGTAC | 0.891 | 0.876 | 0.85 | 0.858 | 0.885 | 0.796 | 0.829 |
| TGCGTG | 0.655 | 0.608 | 0.575 | 0.643 | 0.651 | 0.737 | 0.639 |
| GGGAAC | 0.684 | 0.683 | 0.658 | 0.679 | 0.614 | 0.663 | 0.666 |
| CTGGGA | 0.78 | 0.772 | 0.836 | 0.825 | 0.81 | 1.01 | 0.809 |
| TCGGGG | 0.429 | 0.389 | 0.4 | 0.388 | 0.397 | 0.401 | 0.399 |
| CCGTCG | 0.847 | 0.929 | 0.835 | 0.758 | 0.783 | 0.843 | 0.802 |
| GGCCAA | 0.849 | 0.789 | 0.737 | 0.832 | 0.885 | 0.812 | 0.828 |
| GGTCGC | 0.865 | 0.836 | 0.794 | 0.823 | 0.831 | 0.805 | 0.787 |
| AGCCCG | 0.956 | 0.822 | 0.869 | 0.872 | 0.873 | 0.754 | 0.825 |
| GGCACG | 0.845 | 0.828 | 0.915 | 0.92 | 0.874 | 0.832 | 0.869 |
| GGGACC | 0.641 | 0.614 | 0.693 | 0.643 | 0.689 | 0.647 | 0.647 |

An excerpt from above, reduced to binding signal [3].
Sequence	binding signal [3]
GGCCAA	0.737
GGTCGC	0.794
AGCCCG	0.869
GGCACG	0.915
GGGACC	0.693

Part of the list above in another layout:
Sequence	binding signal [1]	binding signal [2]	binding signal [3]	binding signal [4]	binding signal [5]	binding signal [6]	binding signal [7]
AGTCTA	0.765	0.748	0.739	0.699	0.703	0.61	0.702
CAGTAC	0.891	0.876	0.85	0.858	0.885	0.796	0.829
TGCGTG	0.655	0.608	0.575	0.643	0.651	0.737	0.639

Continuation.

| Sequence | binding signal [1] | binding signal [2] | binding signal [3] | binding signal [4] | binding signal [5] | binding signal [6] | binding signal [7] |
| --- | --- | --- | --- | --- | --- | --- | --- |
| TGAGCG | 0.64 | 0.568 | 0.606 | 0.64 | 0.668 | 0.642 | 0.605 |
| GTCGGC | 0.346 | 0.402 | 0.41 | 0.367 | 0.385 | 0.44 | 0.353 |
| GAGCGG | 0.528 | 0.508 | 0.506 | 0.537 | 0.513 | 0.534 | 0.505 |
| TTGGAG | 0.535 | 0.549 | 0.547 | 0.566 | 0.531 | 0.469 | 0.515 |
| TAGACG | 0.765 | 0.738 | 0.779 | 0.745 | 0.745 | 0.717 | 0.714 |
| CGCGGG | 0.781 | 0.715 | 0.814 | 0.708 | 0.767 | 0.823 | 0.739 |
| TCGGAC | 0.362 | 0.397 | 0.345 | 0.334 | 0.349 | 0.377 | 0.383 |
| CGCGGA | 0.937 | 0.928 | 0.972 | 0.956 | 0.952 | 0.931 | 0.945 |
| CCATCG | 0.874 | 0.813 | 0.781 | 0.802 | 0.857 | 0.829 | 0.933 |
| CGTAGT | 0.829 | 0.852 | 0.822 | 0.802 | 0.88 | 0.753 | 0.841 |
| CGTGCC | 0.814 | 0.786 | 0.885 | 0.883 | 0.807 | 0.914 | 0.821 |
| AGTGGA | 0.756 | 0.841 | 0.739 | 0.746 | 0.723 | 0.823 | 0.767 |
| CCAGCG | 0.66 | 0.622 | 0.652 | 0.58 | 0.658 | 0.626 | 0.67 |
| GTGAGA | 0.346 | 0.306 | 0.31 | 0.322 | 0.328 | 0.314 | 0.307 |
| AGGGGA | 0.582 | 0.592 | 0.61 | 0.658 | 0.555 | 0.643 | 0.54 |
| TCGGAT | 0.512 | 0.513 | 0.526 | 0.533 | 0.475 | 0.506 | 0.532 |
| GAGCGT | 0.352 | 0.301 | 0.32 | 0.334 | 0.34 | 0.289 | 0.351 |
| TGAGAC | 0.541 | 0.532 | 0.518 | 0.548 | 0.55 | 0.563 | 0.482 |
| AGTTCG | 0.717 | 0.691 | 0.744 | 0.748 | 0.767 | 0.711 | 0.707 |
| ACGTGT | 0.643 | 0.663 | 0.632 | 0.666 | 0.637 | 0.607 | 0.622 |
